Laboratory results as given in patent US20190169241A1 (BOARD OF TRUSTEES OF THE UNIVERSITY OF ILLINOIS, published 2019).
No constants are given. Whether binding was seen depends on the method and setting. Binding seen in cells or lysates may run through a third protein. Some binding calls cover weakened binding; strength is not graded here.

Sequences of proteins named here, by UniProt entry; tags and fusion partners are left off. Residues count along the entry.
UniProt P35968, residues 20-1356: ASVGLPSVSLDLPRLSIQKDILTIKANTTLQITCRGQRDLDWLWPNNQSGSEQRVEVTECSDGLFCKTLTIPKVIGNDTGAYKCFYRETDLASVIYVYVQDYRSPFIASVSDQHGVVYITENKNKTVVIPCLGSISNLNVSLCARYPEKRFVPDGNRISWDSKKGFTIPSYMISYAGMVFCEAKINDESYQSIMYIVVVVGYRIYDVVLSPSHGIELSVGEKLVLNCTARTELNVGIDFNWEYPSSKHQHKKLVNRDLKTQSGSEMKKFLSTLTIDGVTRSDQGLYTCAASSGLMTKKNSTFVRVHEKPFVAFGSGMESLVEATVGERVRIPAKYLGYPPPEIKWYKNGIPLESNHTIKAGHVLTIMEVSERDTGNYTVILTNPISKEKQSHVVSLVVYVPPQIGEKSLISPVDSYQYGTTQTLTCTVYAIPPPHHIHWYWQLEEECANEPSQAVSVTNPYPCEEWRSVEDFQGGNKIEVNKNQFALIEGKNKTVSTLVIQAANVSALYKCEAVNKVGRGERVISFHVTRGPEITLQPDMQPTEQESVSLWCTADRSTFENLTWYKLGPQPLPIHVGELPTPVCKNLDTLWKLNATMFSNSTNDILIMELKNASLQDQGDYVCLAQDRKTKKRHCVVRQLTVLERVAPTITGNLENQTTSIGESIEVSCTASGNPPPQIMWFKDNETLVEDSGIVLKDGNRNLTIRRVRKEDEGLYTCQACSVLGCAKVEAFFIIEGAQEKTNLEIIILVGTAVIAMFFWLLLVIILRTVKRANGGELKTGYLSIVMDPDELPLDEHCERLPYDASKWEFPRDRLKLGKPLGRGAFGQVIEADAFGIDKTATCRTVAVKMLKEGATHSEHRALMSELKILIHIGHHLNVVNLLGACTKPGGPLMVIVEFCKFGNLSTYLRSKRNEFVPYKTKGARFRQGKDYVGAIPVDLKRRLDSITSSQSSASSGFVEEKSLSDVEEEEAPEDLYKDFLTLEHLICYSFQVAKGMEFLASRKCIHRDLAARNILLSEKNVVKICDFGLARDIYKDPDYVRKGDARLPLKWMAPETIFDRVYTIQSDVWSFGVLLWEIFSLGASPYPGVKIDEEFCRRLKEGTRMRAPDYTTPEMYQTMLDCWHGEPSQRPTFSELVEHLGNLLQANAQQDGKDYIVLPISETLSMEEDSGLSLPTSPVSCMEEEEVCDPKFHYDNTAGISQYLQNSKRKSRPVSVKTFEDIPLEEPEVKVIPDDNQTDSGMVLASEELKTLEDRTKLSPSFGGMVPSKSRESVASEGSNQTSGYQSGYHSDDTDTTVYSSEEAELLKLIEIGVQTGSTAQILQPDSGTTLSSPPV

Molecular target: vascular endothelial growth factor receptor 2 (VEGFR2), endogenous, from HUVEC lysates (human) (UniProt P35968)
Assay: pull-down from HUVEC lysate with recombinant protein on beads, anti-VEGFR2 western blot

B1: DUF2C (residues 1217-1281 of KIF13B), recombinant protein from bacteria (protein, human, UniProt Q9NQT8 1217-1281, looked up, not shown: small tags and cut ends)
chain: HDGEVKAEASWDSAVHGCPQLSRGTPVDERLFLIVRVTVQLSHPADMQLVLRKRICVNVHGRQGF
  binding: binds
